Marks after values point to notes of the source that are not given here.
Assay: Fatty acid contents analysis in gender-specific sera (GC/MSD)
Design: species or system bovine
Conditions: for fatty acid content in C-MS: castrated male serum; for fatty acid content in FS: female serum; for fatty acid content in MS: male serum

Molecule | fatty acid content in C-MS | fatty acid content in FS | fatty acid content in MS
CCCCCC=CCC=CCCCCCCCC(=O)O [9,12-octadecadienoic acid (C18:2n-trans), 9,12-octadecadienoic acid] | 1381.56 ± 6.54 mg/mL | 1314.35 ± 5.96 mg/mL | 1854.53 ± 6.06 mg/mL
CCCCCCC=CCCCCCCCC(=O)O [9-Hexadecenoic acid (C16:1), 9-Hexadecenoic acid] | 46.01 ± 1.34 mg/mL | 47.82 ± 0.92 mg/mL | 45.38 ± 1.17 mg/mL
CCCCCCCCC=CCCCCCCCC(=O)O [9-octadecenoic acid (C18:1-cis), 9-octadecenoic acid] | 225.5 ± 2.61 mg/mL | 214.25 ± 2.51 mg/mL | 147.47 ± 1.24 mg/mL
CCCCCCCCC=CCCCCCCCC(=O)O [9-octadecenoic acid (C18:1-trans), 9-octadecenoic acid] | 192.90 ± 1.97 mg/mL | 177.37 ± 1.83 mg/mL | 198.77 ± 2.32 mg/mL
CCCCCCCCCCCCCCCCCCCC(=O)O [Arachidic acid (C20:0), Arachidic acid] | 2.38 ± 0.23 mg/mL | 7.17 ± 0.37^a mg/mL | 3.25 ± 0.32 mg/mL
CCCCC/C=C\C/C=C\C/C=C\C/C=C\CCCC(=O)O [Arachidonic acid (C20:4n6), Arachidonic acid] | 279.90 ± 2.02 mg/mL | 234.56 ± 1.47 mg/mL | 234.21 ± 0.73 mg/mL
CCCCCCCCCCCCCCCCCCCCCC(=O)O [Behenic acid (C22:2), Behenic acid] | 75.14 ± 1.09 mg/mL | 47.90 ± 0.83^a mg/mL | 36.00 ± 1.25^a mg/mL
CCCCCCCC(=O)O [Caprylic acid (C8), Caprylic acid] | 0.88 ± 0.14 mg/mL | 0.46 ± 0.14 mg/mL | 0.64 ± 0.13 mg/mL
CCCCCCCCCC(=O)O [Carpric acid (C10), Carpric acid] | 0.80 ± 0.11 mg/mL | 0.59 ± 0.13 mg/mL | 1.00 ± 0.19 mg/mL
CCCCCCCCCCCC(=O)O [Lauric acid (C12), Lauric acid] | 3.78 ± 0.33 mg/mL | 1.56 ± 0.24 mg/mL | 3.32 ± 0.17 mg/mL
CC/C=C/CCCCCCCCCC(=O)OC [Methyl E-11-tetradecenoate (C14:1), Methyl E-11-tetradecenoate] | 2.76 ± 0.27 mg/mL | 1.41 ± 0.20^a mg/mL | 2.16 ± 0.21 mg/mL
CCCCCCCCCCCCCC(=O)O [Myristic acid (C14:0), Myristic acid] | 17.92 ± 0.52 mg/mL | 15.05 ± 0.53 mg/mL | 16.86 ± 0.33 mg/mL
CCCCCCCC/C=C\CCCCCCCCCCCCCC(=O)O [Nervonic acid (C24:1), Nervonic acid] | 154.75 ± 1.59 mg/mL | 90.72 ± 1.02^a mg/mL | 85.78 ± 1.67^a mg/mL
CCCCCCCCCCCCCCCCCCCCCCCC(=O)O [Tetracosanoic acid (C24:0), Tetracosanoic acid] | 66.62 ± 1.07 mg/mL | 33.41 ± 0.93^a mg/mL | 43.45 ± 1.14 mg/mL
CCCCCCCCCCCCCCCCCCCCCCC(=O)O [Tricosanoic acid (C23:0), Tricosanoic acid] | 142.86 ± 1.53 mg/mL | 80.93 ± 0.93^a mg/mL | 81.84 ± 1.67^a mg/mL
CCCCCCCCCCCCC(=O)O [Tridecanoic acid (C13), Tridecanoic acid] | 1.39 ± 0.27 mg/mL | – | 0.32 ± 0.15 mg/mL
CCCCCCCCCCC(=O)O [Undecanoic acid (C11), Undecanoic acid] | 1.13 ± 0.15 mg/mL | 0.22 ± 0.15^a mg/mL | not detected
Eicosadienoic acid [Eicosadienoic acid (C20:2n)] | 10.43 ± 0.40 mg/mL | 22.48 ± 0.63^a mg/mL | 12.81 ± 0.39 mg/mL
Eicosatrienoic acid [Eicosatrienoic acid (C20:3n3)] | 367.90 ± 3.90 mg/mL | 351.66 ± 2.90 mg/mL | 242.55 ± 2.60 mg/mL
Eicosenoic acid [Eicosenoic acid (20:1n)] | 5.36 ± 0.22 mg/mL | 7.18 ± 0.20 mg/mL | 5.53 ± 0.25 mg/mL

Reference: US20120028359A1, “PRODUCTION PROCESS OF GENDER-SPECIFIC SERUM AND BIOMARKER USING THE SERUM” (priority 2009, published 2012)
